# Test results as given in paper doi:10.1101/2020.01.03.892703.
# Results are given in words; binding and its absence hold for the method and conditions named. Binding seen in cells or lysates may run through a third protein. These calls come from enrichment with a bait or labelling near it, and not all partners need be listed. Sequences can lack the tags named with a protein.
# T1: biotin-tagged XPF (mouse (endogenous knock-in in MEFs)) (UniProt Q9QZD4)
# T1 sequence (chain, biotin on the 15 aa tag (by the BirA ligase in vivo)): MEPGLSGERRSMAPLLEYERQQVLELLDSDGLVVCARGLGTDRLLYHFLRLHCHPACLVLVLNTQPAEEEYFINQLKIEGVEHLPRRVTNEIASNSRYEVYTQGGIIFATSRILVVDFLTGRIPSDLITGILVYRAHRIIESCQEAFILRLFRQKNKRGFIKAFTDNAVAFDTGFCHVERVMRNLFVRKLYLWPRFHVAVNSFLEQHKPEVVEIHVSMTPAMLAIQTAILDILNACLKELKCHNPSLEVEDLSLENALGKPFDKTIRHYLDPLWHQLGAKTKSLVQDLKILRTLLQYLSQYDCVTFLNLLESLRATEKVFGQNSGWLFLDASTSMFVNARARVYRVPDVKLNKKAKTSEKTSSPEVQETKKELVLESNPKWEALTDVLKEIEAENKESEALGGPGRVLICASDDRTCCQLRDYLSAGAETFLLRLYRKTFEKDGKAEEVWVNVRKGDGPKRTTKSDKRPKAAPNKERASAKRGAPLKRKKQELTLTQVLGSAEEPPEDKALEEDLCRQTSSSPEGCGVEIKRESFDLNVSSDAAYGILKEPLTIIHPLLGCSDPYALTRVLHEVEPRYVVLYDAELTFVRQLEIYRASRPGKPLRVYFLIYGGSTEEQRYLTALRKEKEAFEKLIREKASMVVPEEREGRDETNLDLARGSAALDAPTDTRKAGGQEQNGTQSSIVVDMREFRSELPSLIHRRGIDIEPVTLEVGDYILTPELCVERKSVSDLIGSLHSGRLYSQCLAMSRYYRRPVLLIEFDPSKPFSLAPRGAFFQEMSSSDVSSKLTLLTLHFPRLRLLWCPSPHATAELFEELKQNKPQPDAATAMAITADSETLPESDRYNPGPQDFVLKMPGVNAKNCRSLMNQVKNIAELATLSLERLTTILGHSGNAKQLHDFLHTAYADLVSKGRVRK
# B1: NUP153 (protein, UniProt E9Q3G8 1-1462)
# chain: MASEAGGIGGGGGGGKIRTRRCHQGPVKPYQQGRPQHQGILSRVTESVKNIVPGWLQRYFNKSENACSCSPDADEVPPWPENREDEHAIYADENTNTDDGRITPDPAGSNTEEPSTTSTASNYPDVLTRPSLHRSHLNFSVLESPALHCQPSTSSAFPIGSSGFSLVKEIKDSTSQHDDDNISTTSGFSSRASEKDIAVSKNTSLPPLWSPEAERSHSLSQHTAISSKKPAFNLSAFGTLSTSLGNSSILKTSQLGDSPFYPGKTTYGGAAAAVRQNKVRSTPYQAPVRRQMKAKQLNAQSYGVTSSTARRILQSLEKMSSPLADAKRIPSAVSSPLNSPLDRSGIDNTVFQAKKEKVDSQYPPVQRLMTPKPVSIATNRTVYFKPSLTPSGDLRKTNQRIDKKNSTVDEKSISRQNREQESGFSYPNFSIPAANGLSSGVGGGGGKMRRERTHFVAPKPPENEEVEAPLLPQISLPISSSSLPTFSFSSPVTSASPSPVSSSQPLPNKVQMTSLGSTGSPVFTFSSPIVKSTQAAVLPPASIGFTFSVPLAKTEFSGSNSSSETVLSSSAQDITAVNSSSYKKRSAPCEDPFTPAKILREGSVLDILKTPGFASPKVDSPALQPTTTSSIVYTRPAISTFSSSGIEYGESLKAGSSWQCDTCLLQNKVTDNKCIACQAAKLPLKETAKQTGTGTPSKSDKPASTSGTGFGDKFKPAIGTWDCDTCLVQNKPEAVKCVACETPKPGTGVKRALTLTVASESPVTASSSTTVTTGTLGFGDKFKRPVGSWECPVCCVCNKAEDNRCVSCTSEKPGLVSASSSSPAPVSLSSGGCLGLDKFKKPEGSWDCEVCLVQNKADSAKCIACESAKPGTKSEFKGFGTSSSLNPAPSAFKFGIPSSSSGLSQTLTSTGNFKFGDQGGFKLGTSSDSGSTNTMNTNFKFSKPTGDFKFGVLSDSKPEEVKNDNKNDNFQFGSSSGLTNPASSAPFQFGVSTLGQQEKKEELPKSSPAGFSFGAGVNNPPNAAIDTTATSENKSGFNFGTLDTKSVSVTPFTYKTTEAKKEDAPATKGGFTFGKVGSSSLPSSSMFVLGRTEEKQQEPVTSTSLVFGKKADSEEPKCQPVFSFGNSEQTKDESSKPTFSFSVAKPSGKESEQLAKATFAFGNQTNTTTDQGAAKPVFSFLNSSSSSSSAPATSSSGGIFGSSTSSSNPPVAAFVFGQASNPVSSSAFGNAAESSTSQSLLFPQESEPATTSSTAPAASPFVFGTGASSNSVSSGFTFGATTTSSSSGSSFVFGTGHSAPSASPAFGANQTPTFGQSQGASQPNPPSFGSISSSTALFSAGSQPVPPPIFGTVSSSSQPPVFGQQPSQSAFGSGTANASSVFQFGSSTTNFNFTNNNPSGVFTFGASPSTPAASAQPSGSGVFSFSQSPASFTVGSNGKNMFSSSGTSVSGRKIKTAVRRKK
# B2: GNL3 (protein, UniProt Q8CI11 1-538)
# chain: MKRPKLKKASKRMTCHKRYKIQKKVREHHRKLRKEAKKRGHKKPRKDPGVPNSAPFKEALLREAELRKQQLEELKQQQKLDRQKEQERKRKLEVSPGDEQSNVETREESDEPKRKKAKAGKQNPKKLHCQELKKVIEASDIVLEVLDARDPLGCRCPQIEEAVIQSGSKKLILVLNKSDLVPKENLENWLNYLNKELPTVVFKASTNLKNRKTFKIKKKKVVPFQSKICCGKEALWKLLGDFQQSCGKDIQVGVIGFPNVGKSSVINSLKQEWICNVGISMGLTRSMQIVPLDKQITIIDSPCLIISPCNSPTALALRSPASIEELRPLEAASAILSQADNEQVVLKYTVPEYKDSLHFFTKLAQRRGLHQKGGSPNVESAAKLVWSEWTGASLGYYCHPPASWNHSLHFNENIAAVMKKGFNLEELEKNNAHSIQVLKGPHLTNRILFRSSGLTNGILDEKDIVEESPRQTEDKQDADDQENGSGERNAEISDVAPVEETRELSPEQSTAGKPSDGSSALDRASQEDETYDFTTDYI
# B3: NOP58 (protein, UniProt Q6DFW4 1-536)
# chain: MLVLFETSVGYAIFKVLNEKKLQEVDSLWKEFETPEKANKIVKLKHFEKFQDTAEALAAFTALMEGKINKQLKKVLKKIVKEAHEPLAVADAKLGGVIKEKLNLSCIHSPVVNELMRGIRSQMDGLIPGVEPREMAAMCLGLAHSLSRYRLKFSADKVDTMIVQAISLLDDLDKELNNYIMRCREWYGWHFPELGKIISDNLTYCKCLQKVGDRKNYASASLSEFLSEEVEAEVKAAAEISMGTEVSEEDICNILHLCTQVIEISEYRTQLYEYLQNRMMAIAPNVTVMVGELVGARLIAHAGSLLNLAKHAASTVQILGAEKALFRALKSRRDTPKYGLIYHASLVGQSSPKHKGKISRMLAAKTVLAIRYDAFGEDSSSAMGIENRAKLEARLRILEDRGIRKISGTGKALAKAEKYEHKSEVKTYDPSGDSTLPTCSKKRKIEEVDKEDEITEKKAKKAKIKIKAEVEEEMEEEEAEEEQVVEEEPTVKKKKKKDKKKHIKEEPLSEEEPCTSTAVPSPEKKKKKKKKKDAED
# B4: UTP15 (protein, UniProt Q8C7V3 1-528)
# chain: MAGYKPVAIQTYPVLGEKITQDTLYWNNYKTPVQIKEFGAVSKVDFSPQLPYNYAVTASSRIHIYGRYSQEPVKTFSRFKDTAYCATFRQDGQLLVAGSEDGVVQLFDINGRAPLRQFEGHTKAVHTVDFTADNYHVVSGADDYTVKLWDIPNSKEILTFKEHSDYVRCGCASKLNPDLFVTGSYDHTVKIFDARTNKNVLCVEHGQPVESVLLFPSGGLLVSAGGRYVKVWDMLKGGQLLVSLKNHHKTVTCLCLSSSGQRLLSGSLDRKVKVYSTTSYKVVHSFDYAASILSLALSHQDETIVVGMTNGILSVKHRKSEAKKTSLPRRRRPAYRTFIKGKNYLKQRDDIMVSRPAKKHLEGYDKDLKSFRVSQALDRVLEPKCVIRTPEVTVSIIKELTRRGVLANALAGRDEKEVTRVLNFLIRNLSQPRFAPVLINAAEIIIDIYLPVIGQSSVVDKKFIVLQELVEKEIDYQRELLETLGMMDMLFATMTRNDSDPVPEHVPAELPEEKTESPTQPSDTDKNS
# B5: WDR36 (protein, UniProt Q3TAQ9 1-899)
# chain: MAEMESAVEGRTASVLFAGFRALGLFSNEVPHVVRYSALKRRFYVTTCVGKSFHTYDVQKLSLVAVSNSVPQDICCMAADGRLVFAAYGNVFSAFARNKEIVHTFKGHKAEIHLLQPFGDHVISVDTDSVLIIWHIYSEEEYLQLTFDKSVFKISTILHPSTYLNKVLLGSEQGSLQLWNIKSNKLLYTFPGWKVGVTALQQAPAVDVVAIGLVSGQVVIHNIKYDETLMKFHQDWGPITSISFRTDGHPIMAAGSPCGHIGLWDLEDKKLINQMRNAHSTAISGLTFLHREPLLVTNGADNALRIWIFDGPAGEGRLLRFRMGHSASLTKIRYYGQNGQQILSASQDGTLQSFSTVHEKFNKSLGHGLVNKKIVKRKGLQNTMSVRLPPITQFAAEEARQSDWDGIIACHQGKRSCSTWNYQRSTIGAYFLKPRGVKTNSNLTATAVDITSCGNFAIIGLSSGAVDVYNMQSGIHRGNFGDDKAHTGSVRGVAVDGLNQLVVTAGSERLLKFWNFKSKVLIHSLGLDSSPNMMLLHRDSGILGLAMDDFSIAVLDIETRKIVREFSGHHGQINDMTFSPDGRWLISAAMDCSVRTWDLPSGCLIDCFLLDSAPLNVTMSPTGDFLATSHVDHLGIYLWSNISLYSVVSLRPLPPDYVPSIVMLPGTCQTQGMEDLEEKTEPSDEMIEYESPEQLSEQLVTLSLLPESRWKNLLNLDVIKKKNKPKEPPKVPQSAPFFIPTVPGLVPRFAVPEPSSDPQQSKVVNLGILAQKSNFYLKLEEGLLNNQYEAALNLLKELGPSGIETELRNLSPDDGGSVEVMRSFLSMIGMMLDRKRDFELAQAYLALFLKLHLRTLPSEPALLEELVKLSSQVEKDWTHLQSLFNQSMCVLNYIKSAFL
# B6: WDR43 (protein, UniProt Q6ZQL4 1-677)
# chain: MAAGGGGSYDPLAPAGVPCAFSPDSQAYFALASSDGQLRVWETANNRLHQEYVPSAHLSGTCTCLAWAPARLQAKESHQRKKRKSEVTGTKDQADLLALGTAVGSILLYSTVRGELHSKLTSGGHENRVNCIQWHQDNDCLYSCSDDKYIVEWSTQTCKVKCKWKGDNSSVSSLCISPDGKMLLSAGRTIKLWVLETKEVYRHFTGHATPVSSLRFTTIRPNESQPSDGITGLYFLSGAVHDRLLNVWQVRSENKEKSAVMSFTVTDEPVYVDLTLSENKEEPVKLAVVCRDGQVHLFEHILNGHCKKPLTSNCTIQIATPGKGKKVTPKPIPILAASFCLDKMSLLLVYGNWFQPTIERVALNSKDTHICLERDISNCWAPTVETAITKVKTPVMNSEAKVLVPGIPGHHAPIKLPPAQPKEAENKRKLGSTEATIEERLGAMDLDRKGRKDDLQTNSFAVLLTQGLESNDFEILNKVLQTKNVNLIKRTVLRIPLRVVIPLLQELTKRLQGHPNSAALMIQWLKCVLTIHASYLSTLPDLVEQLGTLYQLMESRVKTFQKLSNLHGKLILLVTQVTASEKSKKMTSPGQKAKLVYEEESSEEESDDEVPEKDSDDNWDEDEDKDSEKDEGVDEDNEEEDEDMEDKEENEEDREVSSEKELNGDSDLDPENESEEE
# Target: T1, biotin-tagged XPF (mouse (endogenous knock-in in MEFs))
# Assay: affinity purification with mass spectrometry
row,Binder,binding
1,B1,binds
2,B2,binds
3,B3,binds
4,B4,binds
5,B5,binds
6,B6,binds
